Data taken from patent publication US12599604B2, “Application of JAK inhibitor in kidney disease” (JIANGSU HENGRUI PHARMACEUTICALS CO., LTD., priority 2020, dated 2026).
At least one structure is not confirmed: it was looked up by name or label, or the drawing left a doubt.

Columns and labels:
[1] = tested on: LPS-induced acute kidney injury mouse models; assay: Lipopolysaccharide (LPS)-induced acute kidney disease models (Example 3); format: in vivo; conditions: 5 mg/kg oral BID; 24 h after LPS 12 mpk ip; FIG. 10
Method: After arrival and subsequent 7-day acclimation, the animals were randomly grouped. Except the animals in the control group, all other animals needed to be modeled by intraperitoneal injection with LPS. From day −2 to day 0, the mice in each group were administered by gavage, BID. On the day of modeling (day 0), the animals were intraperitoneally injected with LPS (12 mpk) post administration in the morning. Blood samples were collected after 24 h, and creatinine and urea nitrogen levels were measured.
The effects of the compounds on the kidney were then evaluated.

[2] = tested on: chronic diabetic nephropathy; conditions: NCT01683409; cited from earlier work

CCS(=O)(=O)N1CC(CC#N)(n2cc(-c3ncnc4[nH]ccc34)cn2)C1 [Compound B, Baricitinib, reference compound]
blood creatinine and urea nitrogen levels induced by LPS [1]: showed a significant difference compared with the model group | clinical efficacy for chronic diabetic nephropathy [2]: clinically demonstrated to have a given efficacy
